Results taken from PubChem BioAssay AID504467 (National Center for Advancing Translational Sciences (NCATS), 2011).
Screen size: about 330,000 compounds; about 7,700 (2.3%) were called active. Inconclusive means that the source gave no clear call. Such entries were picked first, then a sample of the others. Calls come from the whole dose curve; as a rule, active = well fitted inhibition curve with a large enough effect; inconclusive = small, poorly fitted or top-dose-only effect, or effect the other way; inactive = flat fitted curve, though single readings scatter. A potency beside an inconclusive call is a rough fit, not a confirmed value.
Potency is the fitted concentration of half-maximal effect.

Test: qHTS screen for small molecules that inhibit ELG1-dependent DNA repair in human embryonic kidney (HEK293T) cells expressing luciferase-tagged ELG1; note: nearly all actives have a fitted effect of over 55% in size
Details: HEK293T ELG1-luciferase reporter, luminescence, 16 h, DNA damage induced by 5-fluorouridine; series mostly up to 46.1 µM
Procedure, shortened: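 Cells (2,000 per well) received 5-fluorouridine plus test compound or DMSO and were incubated 16 hr at 37 °C, 5% CO2. Luciferase activity was read by luminescence 30 min after ONE-Glo addition; signal suppression marked inhibition of damage-induced ELG1 function.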
With `O=C(NCC1COc2ccccc2O1)c1c[nH]c2ccc(S(=O)(=O)N3CCOCC3)cc2c1=O` (centres undefined) the Potency was inconclusive: 16.4 µM [inhibitor, partial curve, poor fit]. With `COc1ccc(NC(=O)CSc2nc3ccsc3c(=O)n2Cc2ccccn2)c(OC)c1` the Potency was inconclusive: 11.6 µM [activator, partial curve]. For `Cc1nn(C2CCS(=O)(=O)C2)c(C)c1CN(C)C(=O)c1ccccc1` (centres undefined), the Potency was “inactive”. With `Cc1nc2nc(SCC(=O)c3cccc([N+](=O)[O-])c3)[nH]c2cc1Br` the Potency was inconclusive: 7.31 µM [activator, partial curve, poor fit]. With `COc1cc(C(C)=O)ccc1OC(C)C(=O)Nc1ccc(S(=O)(=O)N2CCCC2)cc1` (centres undefined) the Potency was inconclusive: 7.08 µM [inhibitor, partial curve]. For `Cc1cc(NC(=O)CCC(=O)N(Cc2ccco2)C(C(=O)NC2CCCC2)c2ccccc2F)no1` (centres undefined), the Potency was “inactive”. In the case of `COc1cc(NC(=O)c2ccc(Br)o2)ccc1NC(=O)c1ccccc1Cl`, the Potency is reported as inconclusive: 18.4 µM [inhibitor, single point]. With `COc1cc(C(=O)OCC(=O)N(C)Cc2ccccc2)cc(OC)c1OC` the Potency was inconclusive: 29.1 µM [inhibitor, single point]. For `Cc1ccc(CN2CCN(/N=C/c3ccc(O)c(O)c3)CC2)cc1`, the Potency was “inactive”. In the case of `CCn1c(C(=O)N2CCCC(C(=O)NCCc3ccc(C)cc3)C2)cc2sccc21` (centres undefined), the Potency is reported as active: 18.4 µM. With `COc1ccc(Cc2nc(C(=O)Nc3ccccc3)cs2)cc1` the Potency was inconclusive: 29.1 µM [activator, single point]. For `O=C(NCc1ccco1)c1ccccc1-c1nc(-c2ccccc2)no1`, the Potency was inconclusive: 29.1 µM [inhibitor, single point]. With `CCN1CCN(c2ccc(S(=O)(=O)N3CCCCC3)cc2NC(=O)/C=C/c2ccc([N+](=O)[O-])cc2)CC1` the Potency was inconclusive: 29.1 µM [inhibitor, single point]. For `Cc1ccc(/C=N/n2cc(-c3ccccc3)[nH]c2=S)s1`, the Potency was inconclusive: 6.51 µM [activator, full curve]. For `Cc1cccc(-n2ccnc2SCC(=O)Nc2nnc(C)s2)c1`, the Potency was inconclusive: 32.6 µM [inhibitor, single point]. For `CCCCc1c(C)[nH]c2nc3ccccc3n2c1=O`, the Potency was inconclusive: 23.1 µM [activator, single point]. In the case of `Cc1csc(NC(=O)c2ccccc2O)n1`, the Potency is reported as inconclusive: 4.61 µM [activator, single point]. With `COc1ccc(-c2c(C(C)=O)c(C)nc3sc4c(=N)n(N)cnc4c23)cc1` the Potency was inconclusive: 9.2 µM [inhibitor, partial curve, poor fit]. In the case of `COc1cccc(C(C)NC(=O)Cc2cccs2)c1` (centres undefined), the Potency is reported as “inactive”. With `Cc1c(C(=O)Nc2ccc(F)cc2)oc2ccc(S(=O)(=O)N3CCCC3)cc12` the Potency was inconclusive: 20.6 µM [inhibitor, single point]. With `Cc1ccc2nc(N3CCOCC3)c3nncn3c2c1` the Potency was inconclusive: 20.6 µM [activator, single point]. In the case of `O=[N+]([O-])c1ccc(O)c(/C=N/NC(=S)Nc2ccc(Cl)cc2Cl)c1`, the Potency is reported as active: 2.91 µM. For `O=C1OC(Cc2ccccn2)C(O)=C1C1=NCCCCN1` (centres undefined), the Potency was inconclusive: 14.6 µM [activator, partial curve]. With `COc1ccccc1NC(=O)Cn1nnc(-c2ccccc2NC(=O)c2cc3ccccc3oc2=O)n1` the Potency was inconclusive: 13 µM [activator, partial curve]. In the case of `CC(C)c1ccc(NC(=S)NC2CCCCCC2)cc1`, the Potency is reported as inconclusive: 20.6 µM [activator, partial curve]. With `CCOC(=O)N1CCN(S(=O)(=O)c2cccc3ccc(C)nc23)CC1` the Potency was inconclusive: 32.6 µM [inhibitor, partial curve, poor fit]. In the case of `Cc1nnc(SCC(=O)NC(=O)Nc2ccc3c(c2)OCCO3)s1`, the Potency is reported as inconclusive: 0.259 µM [inhibitor, full curve, poor fit]. In the case of `Cc1cc(NCCCn2ccnc2)n2nc(C)c(-c3ccccc3)c2n1`, the Potency is reported as inconclusive: 18.4 µM [activator, partial curve]. With `CN(c1ccc(C(=O)Nc2cccc(O)c2)cc1)S(=O)(=O)c1ccccc1` the Potency was inconclusive: 0.73 µM [activator, full curve, poor fit]. For `O=C(Nc1cccc(S(=O)(=O)NC2=NCCC2)c1)c1cc(Cl)ccc1[N+](=O)[O-]`, the Potency was inconclusive: 1.83 µM [activator, partial curve, poor fit]. In the case of `Cc1cc(NC(=O)CSc2nnc(-c3ccccc3)n2Cc2ccco2)no1`, the Potency is reported as “inactive”. For `COc1cccc(NC(=O)C(=O)NCCCn2ccnc2)c1`, the Potency was inconclusive: 25.9 µM [activator, single point]. In the case of `C=CCOC(=O)COc1ccc2c(C)c(C)c(=O)oc2c1`, the Potency is reported as “inactive”. In the case of `CC(=O)Nc1ccc(OCC(O)CN2CCN(c3ccc(C)c(Cl)c3)CC2)cc1` (centres undefined), the Potency is reported as inconclusive: 23.1 µM [inhibitor, single point]. In the case of `CC(C)(C)OC(=O)NCCCCCNC(=O)c1ncn(Cc2ccccc2)c1C(=O)NCCCCCNC(=O)OC(C)(C)C`, the Potency is reported as active: 4.11 µM. With `O=C(NC12CC3CC(CC(C3)C1)C2)N1CCN(C(=O)c2ccco2)CC1` the Potency was inconclusive: 29.1 µM [activator, single point]. For `CCS(=O)(=O)c1ccc2oc(SCC(=O)Nc3ccc(OC)cc3OC)nc2c1`, the Potency was “inactive”. In the case of `Cc1ccc(OCC(=O)Nc2ccc(N3CCN(C(=O)c4ccco4)CC3)cc2)cc1`, the Potency is reported as inconclusive: 25.9 µM [inhibitor, single point]. For `Cc1c(Cl)cnc(NC(=O)COC(=O)c2ccc3ncsc3c2)c1Cl`, the Potency was inconclusive: 18.4 µM [activator, single point]. For `C/C(=N\O)C(=O)NCCN(C)C`, the Potency was inconclusive: 0.411 µM [activator, full curve]. In the case of `CCCCC(=O)Nc1cccc(NC(=S)NC(=O)COc2ccccc2Cl)c1`, the Potency is reported as “inactive”. For `COc1ccc(S(=O)(=O)Nc2ccc(N3CCOCC3)nc2)cc1`, the Potency was inconclusive: 23.1 µM [inhibitor, partial curve]. In the case of `Cc1ccc(CN2[C@@H](c3ccccc3)COCCS2(=O)=O)cc1`, the Potency is reported as “inactive”. With `COc1cccc(/C=N/n2c(COc3ccccc3)n[nH]c2=S)c1O` the Potency was “inactive”. For `CCOC(NC(=O)c1ccccc1)C(NC(=O)c1ccccc1)OCC` (centres undefined), the Potency was inconclusive: 16.4 µM [activator, partial curve, poor fit]. In the case of `Cc1cc(Cl)ccc1OCC(=O)NNC(=O)C1CCCO1` (centres undefined), the Potency is reported as inconclusive: 29.1 µM [activator, single point]. For `CC(OC(=O)CNC(=O)c1ccccc1F)C(=O)Nc1nc(-c2ccccc2)cs1` (centres undefined), the Potency was inconclusive: 14.6 µM [activator, partial curve]. In the case of `COc1ccc(-n2c(C)cc(-c3cn4cccc(C)c4n3)c2C)cc1`, the Potency is reported as inconclusive: 29.1 µM [inhibitor, single point]. In the case of `Cc1ccccc1NC(=O)CCNS(=O)(=O)c1cccc2nsnc12`, the Potency is reported as “inactive”. With `COc1ccc(N2CCC(CNC(=S)Nc3c(C)cc(C)cc3C)C2)cc1` (centres undefined) the Potency was inconclusive: 29.1 µM [inhibitor, single point]. For `Fc1ccc(CNCc2ccccc2Cl)cc1`, the Potency was “inactive”. In the case of `COc1ccc(NC(=O)COC(=O)c2ncc(Cl)c(Cl)c2Cl)c(OC)c1`, the Potency is reported as “inactive”. With `N#Cc1ccc(OCC(=O)N2CCN(S(=O)(=O)c3cccs3)CC2)cc1` the Potency was inconclusive: 29.1 µM [inhibitor, single point]. In the case of `CC(=O)NCCc1nc2cc(NC(=O)COc3ccc(C)cc3)ccc2n1C`, the Potency is reported as “inactive”. For `Cc1nc2nc(-c3ccc(Cl)cc3)nn2c(C)c1Cl`, the Potency was inconclusive: 14.6 µM [activator, partial curve]. For `O=C(CSc1nnc(-c2ccccc2F)o1)N1CCCC1`, the Potency was inconclusive: 16.4 µM [activator, partial curve]. For `CC(C)(C)NC(=O)NC(=O)COc1ccccc1C#N`, the Potency was inconclusive: 1.78 µM [activator, full curve, poor fit]. For `COc1cc(C(=O)Nc2cccc(S(=O)(=O)N3CCCC3)c2)cc(OC)c1C`, the Potency was active: 29.1 µM. With `O=C(Nc1nc2ccc(F)cc2s1)C1=NN(c2ccccc2)C(=O)CC1` the Potency was inconclusive: 20.6 µM [activator, partial curve, poor fit]. For `O=C(N/N=C/C(Cl)=C/c1ccccc1)c1ccncc1`, the Potency was “inactive”. With `N/C(=N\c1nc2ccccc2o1)NC(=O)C(Cc1ccccc1)N1C(=O)c2ccccc2C1=O` (centres undefined) the Potency was inconclusive: 29.1 µM [inhibitor, single point]. With `CCOC(=O)c1ccc(NC(=O)CSc2nncn2-c2cccnc2)cc1` the Potency was inconclusive: 0.0046 µM [inhibitor, full curve, poor fit]. With `O=C(Nc1ccc(F)cc1)C1CCCN(S(=O)(=O)c2cccc3cccnc23)C1` (centres undefined) the Potency was inconclusive: 23.1 µM [inhibitor, partial curve]. In the case of `C#CCn1c(=NC(=O)c2ccc(Br)s2)sc2cccc(OC)c21`, the Potency is reported as inconclusive: 4.61 µM [activator, full curve]. With `COC(=O)CCC(=O)N1CCCC(CO)(Cc2ccccc2F)C1` (centres undefined) the Potency was “inactive”. For `CC(=O)c1ccc(N2CCN(C(=O)c3nn(Cc4ccccc4)c(=O)c4ccccc34)CC2)cc1`, the Potency was active: 9.2 µM. With `Cc1cc(=O)oc2cc(OCC(=O)NCCc3ccccc3)ccc12` the Potency was “inactive”. In the case of `COc1cccc(C(C(=O)NCc2ccccc2)N(C(=O)c2csnn2)C2CC2)c1` (centres undefined), the Potency is reported as “inactive”. In the case of `Cc1ccc(NC(=O)CCNC(=O)c2ccc([N+](=O)[O-])cc2)cc1S(=O)(=O)N1CCOCC1`, the Potency is reported as inconclusive: 14.6 µM [inhibitor, partial curve].
